About 13,000 (3.2%) of roughly 400,000 compounds were called active. The inconclusive results got no clear call from the source; some entries with a clear call stand among them for comparison. Calls follow the shape of the dose curve; as a rule, active = well fitted cell-killing curve with a large enough effect; inconclusive = small, poorly fitted or top-dose-only effect, or effect the other way; inactive = flat fitted curve, though single readings scatter. Where the call is inconclusive, the potency comes from a doubtful curve fit.
Experiment: qHTS assay for MDR1-selective chemotherapeutics: Primary screen using the drug-selected MDR subline cells KB-V1; also: nearly all actives have a fitted effect of over 60% in size
Conditions: KB-V1 MDR cells viability, CellTiter-Glo, 72 h; activity change, negative = cytotoxicity: at 46.1 µM (top of the series)
Method in brief: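 KB-V1 MDR subline cells in DMEM (phenol-red free, 10% FBS) exposed to compounds in qHTS concentration series for 72 h at 37 degrees C. Viability read by CellTiter-Glo luminescence; concentration-effect curves fitted after normalization and correction.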
% is scaled to controls: 0 for no effect and ±100 for the full control effect; potency is read from the fitted curve at half-maximal effect.

**Q.** With `Cc1ccc(NC(=O)c2cccc(OCc3c(C)noc3C)c2)c(C)c1` as the molecule, how does the Potency read?
**A.** inconclusive: 29.1 µM [cytotoxic, single point]

**Q.** Which Potency does the source give for `Cc1[nH]c2ccccc2c1/C=C/c1nc2ccccc2c(=O)n1CCO` here?
**A.** active: 11.6 µM

**Q.** With `CC(C)C(=O)Nc1oc(-c2ccccc2)cc1C#N` as the molecule, how does the Potency read?
**A.** inconclusive: 29.1 µM [cytotoxic, single point]

**Q.** Which Potency does the source give for `COc1ccc(NC(=O)CC2C(=O)N(c3ccc(Cl)cc3)C(=S)N2CCc2ccncc2)cc1` (centres undefined) here?
**A.** inconclusive: 13 µM [cytotoxic, partial curve, poor fit]

**Q.** For `CCOc1ccc(NS(=O)(=O)c2cc(NC(=O)CCS(=O)(=O)c3ccc(C)cc3)ccc2OC)cc1`, which Potency is on record?
**A.** inconclusive: 29.1 µM [cytotoxic, single point]

**Q.** With `COCCn1ccc2c(OCC(=O)NCc3ccc(F)cc3)cccc2c1=O` as the molecule, how does the Potency read?
**A.** inactive

**Q.** With `Cc1ccsc1/C=N/Nc1nc2ccccc2[nH]1` as the molecule, how does the Potency read?
**A.** inconclusive: 29.1 µM [cytotoxic, single point]

**Q.** Which Potency does the source give for `CN(C)c1ccc(CC(=O)N2CCCCC2c2cc(C(=O)Nc3ccccc3)no2)cc1` (centres undefined) here?
**A.** inactive

**Q.** Which Potency does the source give for `O=C(O)c1ccccc1SC1=NS(=O)(=O)c2ccccc21` here?
**A.** inconclusive: 9.2 µM [rising, partial curve]

**Q.** Which Potency does the source give for `COC(=O)COc1ccc2cc(-c3ccccc3)c(=O)oc2c1` here?
**A.** inconclusive: 20.6 µM [rising, partial curve]

**Q.** Which Potency does the source give for `Cc1cc(C)c2nc(/N=C(\N)NC(=O)Nc3ccccc3)nc(C)c2c1` here?
**A.** inconclusive: 29.1 µM [cytotoxic, single point]

**Q.** With `CCOP(=O)(OCC)C(Nc1cccc(C)c1)c1ccc(F)cc1` (centres undefined) as the molecule, how does the Potency read?
**A.** active: 16.4 µM

**Q.** With `COc1ccc(C)cc1-n1c(SCC(=O)Nc2cc(C)on2)nc2ccccc2c1=O` as the molecule, how does the Potency read?
**A.** active: 18.4 µM

**Q.** With `NNC(=O)c1csc(-c2ncc(C(F)(F)F)cc2Cl)n1` as the molecule, how does the Potency read?
**A.** inconclusive: 29.1 µM [cytotoxic, single point]

**Q.** With `CCCc1c(C(=O)N/N=C/c2ccoc2)nnn1-c1nonc1N` as the molecule, how does the Potency read?
**A.** inactive

**Q.** Which Potency does the source give for `Cc1ccc(N2CC(c3nnc(NC(=O)c4ccco4)s3)CC2=O)cc1C` (centres undefined) here?
**A.** inactive

**Q.** For `CN(C)CC(CCC(CN(C)C)C(O)(c1ccccc1)c1ccccc1)C(O)(c1ccccc1)c1ccccc1` (centres undefined), which Potency is on record?
**A.** inconclusive: 29.1 µM [cytotoxic, single point]

**Q.** Which Potency does the source give for `COCCCN1C(=O)c2[nH]nc(-c3cc(C)cc(C)c3O)c2C1c1ccc(O)c(OC)c1` (centres undefined) here?
**A.** active: 20.6 µM

**Q.** Which Potency does the source give for `CCOC(=O)c1c(CN2CCCCC2)n(C)c2cc(Br)c(O)cc12` here?
**A.** active: 10.3 µM

**Q.** For `CC(C)CCNC(=S)Nc1ccc([N+](=O)[O-])cc1`, which Potency is on record?
**A.** inconclusive: 20.6 µM [cytotoxic, single point]

**Q.** With `COc1ccccc1C(CC(=O)c1ccccc1)CC(=O)c1ccccc1` as the molecule, how does the Potency read?
**A.** inconclusive: 23.1 µM [cytotoxic, single point]

**Q.** With `CC(C)C[C@H]1CN([C@@H](CC(C)C)CN2CCC[C@@H]2CN2C(=O)C(=O)NC[C@@H]2Cc2ccccc2)C(=O)C(=O)N1CCc1ccccc1` as the molecule, how does the Potency read?
**A.** inconclusive: 29.1 µM [rising, single point]

**Q.** For `O=C(NCc1cccs1)C1(S(=O)(=O)c2ccccc2)CC=CC1`, which Potency is on record?
**A.** inconclusive: 4.11 µM [rising, full curve]

**Q.** For `CCN(CC)C(=O)c1cccc(NC(=O)c2ccc3c(=O)n4c(nc3c2)CCC4)c1`, which Potency is on record?
**A.** inconclusive: 16.4 µM [rising, partial curve, poor fit]

**Q.** For `Cc1ccccc1C(=O)Nc1ccc2nc3n(c(=O)c2c1)CCC3`, which activity change, negative = cytotoxicity is on record?
**A.** inconclusive: -41.6%

**Q.** Which Potency does the source give for `CCN(CC)c1ccc2c(C)cc(=O)oc2c1` here?
**A.** inconclusive: 7.31 µM [cytotoxic, partial curve]

**Q.** With `CSc1nc(Cl)c(Cc2ccc(OC(C)C)cc2)c(N(C)C)n1` as the molecule, how does the Potency read?
**A.** inactive

**Q.** With `COc1ccc(S(=O)(=O)N2CCCC(N(C)CCc3ccccc3)C2)cc1OC` (centres undefined) as the molecule, how does the Potency read?
**A.** inactive

**Q.** Which Potency does the source give for `Cc1n[nH]c(=S)n1/N=C/c1ccc(-c2ccccc2[N+](=O)[O-])o1` here?
**A.** inconclusive: 29.1 µM [cytotoxic, single point]

**Q.** With `COc1cc(C2/C(=C(\O)c3ccc4c(c3)CC(C)O4)C(=O)C(=O)N2CCCn2ccnc2)cc(OC)c1OC` (centres undefined) as the molecule, how does the Potency read?
**A.** inconclusive: 29.1 µM [rising, single point]

**Q.** For `COC(=O)[C@]12CCCCC=C1N(CCc1ccc(OC)c(OC)c1)C(=O)[C@H](CC(=O)NCCC(C)C)C2`, which Potency is on record?
**A.** inconclusive: 4.11 µM [cytotoxic, full curve]

**Q.** With `COc1ccc(NC(=O)COC(=O)CN2C(=O)C3CCCCC3C2=O)cc1` (centres undefined) as the molecule, how does the Potency read?
**A.** inconclusive: 25.9 µM [rising, single point]

**Q.** Which Potency does the source give for `COc1ccc2ccc(=O)oc2c1CC=C(C)C` here?
**A.** inconclusive: 10.3 µM [rising, partial curve]

**Q.** For `Cc1ccc(NC(=O)Cn2cc(S(=O)(=O)N3CCCC3)c(S(=O)(=O)N3CCCC3)c2)cc1C`, which Potency is on record?
**A.** inconclusive: 1.3 µM [rising, partial curve, poor fit]

**Q.** Which Potency does the source give for `O=C(C1CCCCC1)N1C[C@@H](O)[C@H](n2cc(-c3ccc(F)cc3)nn2)C[C@@H]1c1ccccc1` here?
**A.** inactive

**Q.** With `CCOC(=O)c1c(-c2ccc(-c3ccccc3)cc2)csc1NC(=O)C1C2CCC(O2)C1C(=O)O` (centres undefined) as the molecule, how does the Potency read?
**A.** inactive

**Q.** Which Potency does the source give for `O=C(Nc1nc2c(s1)CCCC2)c1cc(-c2ccccc2)nc2ccccc12` here?
**A.** active: 13 µM

**Q.** With `COc1ccc(C(=O)NCCn2cc(SCC(=O)NCc3ccco3)c3ccccc32)cc1` as the molecule, how does the Potency read?
**A.** inconclusive: 23.1 µM [cytotoxic, single point]

**Q.** With `CCN1CCN(c2cc(C)c3cc(NC(=O)/C=C/c4cccc(Cl)c4)ccc3n2)CC1` as the molecule, how does the Potency read?
**A.** inconclusive: 29.1 µM [cytotoxic, partial curve, poor fit]

**Q.** Which Potency does the source give for `COc1ccc(CNC(=O)CN2C(=O)NC3(CCCCCCC3)C2=O)cc1` here?
**A.** inactive

**Q.** With `COc1ccc2c(c1)NC(=O)CC(c1ccccc1)=N2` as the molecule, how does the Potency read?
**A.** inconclusive: 32.6 µM [cytotoxic, single point]

**Q.** For `Cc1cccc(CN2CCCC(C(=O)Nc3ccc(-c4cscn4)cc3)C2)c1` (centres undefined), which Potency is on record?
**A.** inconclusive: 23.1 µM [cytotoxic, single point]

**Q.** Which Potency does the source give for `CCOc1ccc(NC(=O)CN2CCN(CC(=O)Nc3ccc4c(c3)OCO4)CC2)cc1` here?
**A.** inactive

**Q.** With `CSc1nnc(-c2sccc2OCc2ccccc2)n1C` as the molecule, how does the Potency read?
**A.** inactive

**Q.** Which Potency does the source give for `COc1ccccc1NC(=O)CSc1nc(O)c(Cc2ccccc2)c(=O)[nH]1` here?
**A.** inactive

**Q.** With `FC(F)(F)c1cc(CCN2CCNC[C@@H]2CC2CCCCC2)cc(C(F)(F)F)c1` as the molecule, how does the Potency read?
**A.** inactive

**Q.** Which Potency does the source give for `CC(Sc1nc2ncc(Cl)cc2[nH]1)C(=O)Nc1ccccc1[N+](=O)[O-]` (centres undefined) here?
**A.** inconclusive: 23.1 µM [cytotoxic, single point]

**Q.** For `COc1ccc(CCNCC(O)COc2ccc(OC)cc2C(C)(C)C)cc1` (centres undefined), which Potency is on record?
**A.** inactive

**Q.** For `Cc1ccc(-c2nc(S(=O)(=O)c3ccc(C)cc3)c(SCC(=O)NC3CCCCC3)o2)cc1`, which Potency is on record?
**A.** inconclusive: 16.4 µM [rising, partial curve, poor fit]

**Q.** With `Cn1nc(C(=O)Nc2ccc3c(c2)OCO3)c2ccccc2c1=O` as the molecule, how does the Potency read?
**A.** inconclusive: 23.1 µM [cytotoxic, single point]

**Q.** For `O=c1cc(-c2ccccc2)[nH]c2nc3ccccc3n12`, which Potency is on record?
**A.** inconclusive: 20.6 µM [cytotoxic, single point]

**Q.** With `CC(CSc1nnnn1-c1ccccc1)Cn1c(N2CCCC2)nc2c1c(=O)[nH]c(=O)n2C` (centres undefined) as the molecule, how does the Potency read?
**A.** active: 2.31 µM

**Q.** With `CC(NC(=O)c1ccc(Br)s1)C1CCCO1` (centres undefined) as the molecule, how does the Potency read?
**A.** inconclusive: 16.4 µM [cytotoxic, partial curve]

**Q.** With `COc1ccc(CNC(=O)CN(C)Cc2ccc(C(C)(C)C)cc2)cc1` as the molecule, how does the Potency read?
**A.** inconclusive: 29.1 µM [cytotoxic, single point]

**Q.** Which Potency does the source give for `COc1ccccc1N(CC(=O)NC1CCCCC1C)S(=O)(=O)c1cccs1` (centres undefined) here?
**A.** inconclusive: 20.6 µM [cytotoxic, single point]

**Q.** Which Potency does the source give for `COc1ccc(-c2noc(-c3ccc(NC(C)c4ccccc4)c([N+](=O)[O-])c3)n2)cc1OC` (centres undefined) here?
**A.** inactive

**Q.** Which Potency does the source give for `COc1cc(CNC2CCCCCCC2)cc(Cl)c1OC` here?
**A.** inconclusive: 8.2 µM [cytotoxic, partial curve]

**Q.** For `CC(=O)Nc1ccc(NC(=O)C(C)OC(=O)c2ccc3ccccc3n2)cc1` (centres undefined), which Potency is on record?
**A.** inconclusive: 29.1 µM [rising, single point]

**Q.** For `CCc1ccc(-c2cc(C)no2)cc1S(=O)(=O)Nc1ccc(Cl)cc1`, which Potency is on record?
**A.** active: 16.4 µM

**Q.** For `COc1ccc(C(=O)NC(=S)NNC(=O)c2c(-c3ccccc3)noc2C)cc1`, which Potency is on record?
**A.** active: 6.51 µM

**Q.** With `CN(CCO)c1ccc(-c2nn(C)c(=O)c3ccccc23)cc1[N+](=O)[O-]` as the molecule, how does the Potency read?
**A.** inconclusive: 29.1 µM [cytotoxic, single point]

**Q.** With `CCOC(=O)c1c(C)n(-c2ccc(F)cc2)c2ccc(O)cc12` as the molecule, how does the Potency read?
**A.** inactive

**Q.** Which Potency does the source give for `Cc1ccc(N2CCN(C(CCc3ccccc3)C(=O)Nc3c(C)cccc3C)CC2)cc1` (centres undefined) here?
**A.** inconclusive: 4.61 µM [cytotoxic, full curve, poor fit]

**Q.** For `O=C(Nc1nnc(SCc2ccc(F)cc2)s1)c1cccnc1Cl`, which Potency is on record?
**A.** inactive

**Q.** Which Potency does the source give for `Cc1ccnc(NC(=O)N2CCN(c3cccc(C(F)(F)F)c3)CC2)c1` here?
**A.** inconclusive: 20.6 µM [cytotoxic, single point]

**Q.** For `CN(C)c1ccc(NC(=O)CSC2=Nc3ccccc3C3=NC(CC(=O)NCc4ccccc4)C(=O)N23)cc1` (centres undefined), which Potency is on record?
**A.** inactive

**Q.** Which Potency does the source give for `Cc1ccccc1-n1nc2c(c1NC(=O)c1ccc(Br)o1)CSC2` here?
**A.** active: 13 µM

**Q.** With `CCOc1ccccc1CN(CCc1ccc2c(c1)OCO2)Cc1cccc(OC)c1OC` as the molecule, how does the Potency read?
**A.** inconclusive: 0.0046 µM [cytotoxic, full curve, poor fit]

**Q.** With `COCC(=O)Nc1nc(-c2ccccc2)c(C)s1` as the molecule, how does the Potency read?
**A.** inconclusive: 0.731 µM [rising, full curve, poor fit]

Source: PubChem BioAssay AID1347076 (National Center for Advancing Translational Sciences (NCATS), 2019)
